These are yes or no findings as the source states them, for the method shown. Binding seen in cells or lysates may run through a third protein. Some results given as binding are weak or reduced against the parent protein; the word gives no strength.
Tests used:
[1] = target: VEGF receptor 2 (human (endogenous in HUVEC)) (UniProt P35968); assay: co-IP; VEGFR2 immunoprecipitation from HUVEC after VEGF (1.5 nM for 2'30'') or SLIT2 (3 nM for 2'30'') stimulation; western blot for ROBO1 and VEGFR2
[2] = target: siRNA resistant rat full-length ROBO1-GFP (rat) (UniProt O55005); assay: co-IP; GFP immunoprecipitation (anti-GFP, protein A/G magnetic beads) from ROBO1/2 siRNA silenced HUVECs transduced with adenoviral ROBO1WT-GFP or ROBO1ΔCC3-GFP; lysis in 50 mM Tris-HCl pH 7.4, 50 mM NaCl, 0.5% Triton X-100; western blot; beads alone as control
[3] = target: Endophilin-A2 (human (endogenous in HUVEC)) (UniProt Q99961); assay: co-IP; ENDOA2 immunoprecipitation (anti-ENDOA2, protein A/G magnetic beads) from HUVECs cultured in full, serum-containing medium; lysis in 50 mM Tris-HCl pH 7.4, 50 mM NaCl, 0.5% Triton X-100; overnight at 4 °C; western blot; beads alone as control

By UniProt entry, the sequences of proteins in these tests, tags left out. Residues count along the entry.
UniProt O55005, residues 26-1651: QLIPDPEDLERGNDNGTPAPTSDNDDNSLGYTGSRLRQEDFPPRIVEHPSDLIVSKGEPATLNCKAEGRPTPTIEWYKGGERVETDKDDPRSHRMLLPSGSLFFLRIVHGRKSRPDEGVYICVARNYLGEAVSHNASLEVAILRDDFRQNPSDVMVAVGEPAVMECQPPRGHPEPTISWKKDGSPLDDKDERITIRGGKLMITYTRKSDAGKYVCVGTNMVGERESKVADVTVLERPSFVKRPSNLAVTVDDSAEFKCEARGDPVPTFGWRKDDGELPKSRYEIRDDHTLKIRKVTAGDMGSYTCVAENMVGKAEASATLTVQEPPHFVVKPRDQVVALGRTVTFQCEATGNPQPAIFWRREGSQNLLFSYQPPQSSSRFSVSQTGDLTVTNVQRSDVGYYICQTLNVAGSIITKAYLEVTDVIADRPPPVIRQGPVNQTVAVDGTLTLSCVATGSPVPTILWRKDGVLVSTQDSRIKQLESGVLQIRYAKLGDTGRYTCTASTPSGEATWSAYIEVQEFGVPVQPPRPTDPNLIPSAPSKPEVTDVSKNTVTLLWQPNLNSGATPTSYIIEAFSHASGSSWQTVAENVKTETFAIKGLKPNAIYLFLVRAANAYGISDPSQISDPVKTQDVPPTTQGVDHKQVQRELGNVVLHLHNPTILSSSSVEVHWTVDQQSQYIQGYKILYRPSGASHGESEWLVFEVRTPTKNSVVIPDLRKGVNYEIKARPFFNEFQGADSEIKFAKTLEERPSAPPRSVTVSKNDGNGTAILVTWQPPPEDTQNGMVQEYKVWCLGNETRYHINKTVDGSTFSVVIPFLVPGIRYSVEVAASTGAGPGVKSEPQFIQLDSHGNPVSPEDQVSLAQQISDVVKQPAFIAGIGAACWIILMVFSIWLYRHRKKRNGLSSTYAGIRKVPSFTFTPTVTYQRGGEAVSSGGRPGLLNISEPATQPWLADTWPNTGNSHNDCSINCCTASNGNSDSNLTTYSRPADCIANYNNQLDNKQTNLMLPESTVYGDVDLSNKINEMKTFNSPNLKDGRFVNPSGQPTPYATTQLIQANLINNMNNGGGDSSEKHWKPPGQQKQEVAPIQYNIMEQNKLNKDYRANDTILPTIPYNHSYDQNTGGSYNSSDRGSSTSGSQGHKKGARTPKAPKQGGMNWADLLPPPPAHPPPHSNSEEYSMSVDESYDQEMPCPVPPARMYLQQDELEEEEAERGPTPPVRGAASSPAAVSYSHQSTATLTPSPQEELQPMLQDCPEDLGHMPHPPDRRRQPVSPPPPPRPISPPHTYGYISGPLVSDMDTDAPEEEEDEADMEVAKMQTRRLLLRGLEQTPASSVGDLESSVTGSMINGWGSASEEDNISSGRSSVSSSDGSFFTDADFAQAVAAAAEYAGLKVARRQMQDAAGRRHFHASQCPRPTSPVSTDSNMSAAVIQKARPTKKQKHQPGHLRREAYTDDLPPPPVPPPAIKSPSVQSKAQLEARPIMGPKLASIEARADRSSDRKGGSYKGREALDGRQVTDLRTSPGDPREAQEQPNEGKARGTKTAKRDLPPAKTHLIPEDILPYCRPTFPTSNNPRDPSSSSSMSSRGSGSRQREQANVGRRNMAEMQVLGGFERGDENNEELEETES
UniProt Q99961: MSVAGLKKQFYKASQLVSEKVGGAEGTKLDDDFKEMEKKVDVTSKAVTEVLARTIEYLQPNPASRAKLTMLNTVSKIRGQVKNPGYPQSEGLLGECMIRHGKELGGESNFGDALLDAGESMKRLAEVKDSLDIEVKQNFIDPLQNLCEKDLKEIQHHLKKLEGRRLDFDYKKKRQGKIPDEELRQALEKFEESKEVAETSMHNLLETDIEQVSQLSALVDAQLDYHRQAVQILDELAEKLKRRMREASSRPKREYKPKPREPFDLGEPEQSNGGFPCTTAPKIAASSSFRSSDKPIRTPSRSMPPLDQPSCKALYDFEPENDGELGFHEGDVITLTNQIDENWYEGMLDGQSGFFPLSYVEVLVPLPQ
UniProt Q9Y6N7, residues 26-1651: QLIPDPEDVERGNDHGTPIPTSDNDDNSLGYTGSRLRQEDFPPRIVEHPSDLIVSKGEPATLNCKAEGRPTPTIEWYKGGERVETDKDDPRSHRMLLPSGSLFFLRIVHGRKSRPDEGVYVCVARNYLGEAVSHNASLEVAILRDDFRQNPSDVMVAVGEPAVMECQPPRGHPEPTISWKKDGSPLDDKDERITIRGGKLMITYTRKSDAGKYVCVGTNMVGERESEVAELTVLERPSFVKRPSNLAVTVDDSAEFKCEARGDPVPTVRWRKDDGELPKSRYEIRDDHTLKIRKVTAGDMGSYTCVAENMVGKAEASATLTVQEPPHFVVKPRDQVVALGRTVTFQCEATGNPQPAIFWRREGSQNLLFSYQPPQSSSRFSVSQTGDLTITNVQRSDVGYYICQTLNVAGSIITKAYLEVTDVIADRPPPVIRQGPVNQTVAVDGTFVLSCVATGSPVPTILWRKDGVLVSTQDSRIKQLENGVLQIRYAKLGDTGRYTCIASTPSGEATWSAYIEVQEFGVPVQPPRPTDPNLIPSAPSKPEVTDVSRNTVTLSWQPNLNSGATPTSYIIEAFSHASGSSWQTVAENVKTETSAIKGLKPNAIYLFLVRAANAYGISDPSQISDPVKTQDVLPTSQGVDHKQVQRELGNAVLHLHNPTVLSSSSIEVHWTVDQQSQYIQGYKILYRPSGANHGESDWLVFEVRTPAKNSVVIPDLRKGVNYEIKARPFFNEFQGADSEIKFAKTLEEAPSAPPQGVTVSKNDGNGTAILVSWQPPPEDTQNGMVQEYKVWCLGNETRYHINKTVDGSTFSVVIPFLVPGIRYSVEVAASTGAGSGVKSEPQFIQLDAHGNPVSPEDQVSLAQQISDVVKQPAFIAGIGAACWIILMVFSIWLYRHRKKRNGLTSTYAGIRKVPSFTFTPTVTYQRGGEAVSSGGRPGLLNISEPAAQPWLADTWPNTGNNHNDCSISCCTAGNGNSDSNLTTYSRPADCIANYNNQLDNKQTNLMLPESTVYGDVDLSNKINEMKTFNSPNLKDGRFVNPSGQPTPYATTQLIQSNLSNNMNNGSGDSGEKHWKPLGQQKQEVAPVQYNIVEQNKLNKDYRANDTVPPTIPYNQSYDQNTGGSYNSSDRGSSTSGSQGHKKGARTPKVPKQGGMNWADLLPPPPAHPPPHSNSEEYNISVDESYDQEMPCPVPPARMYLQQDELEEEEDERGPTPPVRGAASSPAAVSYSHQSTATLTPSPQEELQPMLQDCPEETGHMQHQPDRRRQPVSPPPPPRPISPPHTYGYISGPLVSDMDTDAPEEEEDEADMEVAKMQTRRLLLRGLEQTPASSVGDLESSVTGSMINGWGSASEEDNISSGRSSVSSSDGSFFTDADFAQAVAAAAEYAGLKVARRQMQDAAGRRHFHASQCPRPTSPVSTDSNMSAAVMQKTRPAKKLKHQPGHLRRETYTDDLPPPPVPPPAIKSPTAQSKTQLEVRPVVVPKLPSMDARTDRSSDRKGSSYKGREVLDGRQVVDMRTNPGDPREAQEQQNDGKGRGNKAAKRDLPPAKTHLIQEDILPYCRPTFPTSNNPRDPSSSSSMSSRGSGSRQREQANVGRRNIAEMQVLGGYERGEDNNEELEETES
UniProt Q7Z6B7: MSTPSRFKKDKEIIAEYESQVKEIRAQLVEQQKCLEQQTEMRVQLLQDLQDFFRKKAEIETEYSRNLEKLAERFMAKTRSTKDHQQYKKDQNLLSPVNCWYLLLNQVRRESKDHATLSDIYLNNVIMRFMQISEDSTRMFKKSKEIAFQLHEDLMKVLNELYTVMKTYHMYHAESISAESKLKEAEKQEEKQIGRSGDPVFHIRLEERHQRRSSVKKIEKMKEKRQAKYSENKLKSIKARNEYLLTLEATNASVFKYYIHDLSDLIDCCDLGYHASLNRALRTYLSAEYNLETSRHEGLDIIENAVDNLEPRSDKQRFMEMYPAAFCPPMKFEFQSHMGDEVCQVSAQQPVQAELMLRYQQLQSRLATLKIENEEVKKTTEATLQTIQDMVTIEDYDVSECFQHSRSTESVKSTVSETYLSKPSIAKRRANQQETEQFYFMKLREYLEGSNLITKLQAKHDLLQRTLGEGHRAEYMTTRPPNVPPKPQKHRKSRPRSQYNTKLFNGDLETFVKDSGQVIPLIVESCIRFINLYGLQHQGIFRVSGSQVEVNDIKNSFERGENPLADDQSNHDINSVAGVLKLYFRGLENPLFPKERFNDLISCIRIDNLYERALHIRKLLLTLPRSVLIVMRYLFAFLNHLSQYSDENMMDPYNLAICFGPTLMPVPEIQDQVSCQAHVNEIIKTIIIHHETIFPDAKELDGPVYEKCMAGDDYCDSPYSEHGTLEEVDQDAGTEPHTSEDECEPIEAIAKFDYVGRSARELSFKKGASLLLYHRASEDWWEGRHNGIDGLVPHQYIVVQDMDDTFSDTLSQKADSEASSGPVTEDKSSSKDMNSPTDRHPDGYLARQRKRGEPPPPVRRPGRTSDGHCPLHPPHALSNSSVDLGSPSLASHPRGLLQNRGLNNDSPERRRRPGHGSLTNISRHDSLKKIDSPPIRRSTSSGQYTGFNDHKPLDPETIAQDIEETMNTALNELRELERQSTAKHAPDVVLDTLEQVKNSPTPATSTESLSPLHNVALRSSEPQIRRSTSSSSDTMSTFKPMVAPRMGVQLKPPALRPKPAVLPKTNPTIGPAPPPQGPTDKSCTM

binding [1]	binding [2]	binding [3]	Substance
binds	–	–	ROBO1 (from UniProt Q9Y6N7 26-1651) (receptor)
–	binds	–	SLIT ROBO GTPase-activating protein 1 (from UniProt Q7Z6B7 1-1085)
–	binds	binds	VEGF receptor 2 (from UniProt P35968 20-1356)

From publication PMC6538628
